Experimental data taken from PubChem BioAssay AID1347076 (National Center for Advancing Translational Sciences (NCATS), 2019).
About 13,000 (3.2%) of roughly 400,000 compounds were called active. The inconclusive results got no clear call from the source; some entries with a clear call stand among them for comparison. The call rests on the fitted dose curve; in most records, active means well fitted cell-killing curve with a large enough effect; inconclusive means small, poorly fitted or top-dose-only effect, or effect the other way; inactive means flat fitted curve, though single readings scatter. Potencies of inconclusive entries are doubtful fits and often do not repeat.

Test: qHTS assay for MDR1-selective chemotherapeutics: Primary screen using the drug-selected MDR subline cells KB-V1; further: nearly all actives have a fitted effect of over 60% in size
Details: KB-V1 MDR cells viability, CellTiter-Glo, 72 h; activity change, negative = cytotoxicity: at 46.1 µM (top of the series)
Method in brief: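 Cells of the MDR subline KB-V1 are plated, dosed with compound at multiple concentrations, and incubated 72 h at 37 degrees C; CellTiter-Glo is then added and luminescence read after 10 min.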
On the % scale 0 is the no-effect control and ±100 the full control effect; potency means the concentration at half of the fitted maximal effect.

SMILES | Potency | activity change, negative = cytotoxicity
O=C(CN1CCN(S(=O)(=O)c2ccccc2F)CC1)NC1CCCC1 | inconclusive: 10.3 µM [cytotoxic, partial curve] | 
CCN(CC(=O)NC(C)(C)C)C(=O)CCl | inconclusive: 18.4 µM [cytotoxic, single point] | 
Cc1sc(NC(=O)CSc2nnc(CCNC(=O)c3cccs3)n2C)nc1-c1ccccc1 | inconclusive: 16.4 µM [cytotoxic, partial curve, poor fit] | 
OCCN1CCN(c2nccn3ccnc23)CC1 | inactive | 
COc1ccc(-c2nc(C#N)c(N3CCCCCC3)o2)cc1OC | active: 8.2 µM | 
CCCCCCCCCCCCCCCC[n+]1ccccc1 | inconclusive: 3.66 µM [cytotoxic, partial curve] | 
COCCNc1nc(NCc2cccc(Cl)c2)c2cnn(C)c2n1 | inconclusive: 29.1 µM [cytotoxic, single point] | 
Cc1ccc(C(=O)N/C(=C/c2ccco2)C(=O)Nc2cccc(C(=O)O)c2)cc1 | inconclusive: 29.1 µM [rising, single point] | 
CCCN1Cc2cccc(C(=O)Nc3cccc(C(=O)OCC)c3)c2C1=O | inactive | 
Cc1cc(=O)[nH]c(SCC(=O)Nc2nc(-c3ccccc3)c(-c3ccccc3)o2)n1 | inconclusive: 32.6 µM [rising, partial curve, poor fit] | 
CCn1nc(NC(=O)C(C)(C)C)c2cc3cccc(C)c3nc21 | inactive | 
O=C(COc1ccccc1)OCc1cc(-c2ccco2)on1 | inconclusive: 2.91 µM [rising, partial curve, poor fit] | 
Nc1nc2ccc(-c3nc4ccccc4o3)cc2s1 | active: 1.03 µM | 
O=C(CCCN1C(=O)S/C(=C/C=C/c2ccccc2)C1=O)Nc1ccc(C(=O)O)cc1 | inactive | 
CCOC(=O)c1sc(-c2cccs2)nc1C |  | inconclusive: 35.3%
NC(=O)CC(NC(=O)Cc1cccc2ccccc12)c1ccc(NCCOc2ccccc2)c([N+](=O)[O-])c1 (stereo not given) | inconclusive: 7.31 µM [cytotoxic, partial curve] | 
NC(=O)c1ccc(NC(=O)CNc2cc(S(=O)(=O)N3CCOCC3)ccc2N2CCCC2)cc1 | inconclusive: 29.1 µM [rising, single point] | 
O=[N+]([O-])c1cc(-c2nc(-c3ccccc3)no2)ccc1NC1CCCCC1 | inconclusive: 29.1 µM [rising, single point] | 
O=C(O)C1CCCCC1C(=O)Nc1ccc(Cl)cc1 (stereo not given) | inactive | 
O=C(CSc1nnc(Nc2ccccc2F)s1)c1cc2ccccc2o1 | inconclusive: 23.1 µM [cytotoxic, single point] | 

Ordered by length of the SMILES (largest number first): some entries from above
SMILES | Potency | activity change, negative = cytotoxicity
O=C(CN1CCN(S(=O)(=O)c2ccccc2F)CC1)NC1CCCC1 | inconclusive: 10.3 µM [cytotoxic, partial curve] | 
O=C(COc1ccccc1)OCc1cc(-c2ccco2)on1 | inconclusive: 2.91 µM [rising, partial curve, poor fit] | 
Nc1nc2ccc(-c3nc4ccccc4o3)cc2s1 | active: 1.03 µM | 
